From PubChem BioAssay AID504327 (National Center for Advancing Translational Sciences (NCATS), 2011)
Among all 390,000 compounds or so, about 820 (0.21%) were called active. Inconclusive means that the source gave no clear call. Such entries were picked first, then a sample of the others. Calls follow the shape of the dose curve; as a rule, active = well fitted inhibition curve with a large enough effect; inconclusive = small, poorly fitted or top-dose-only effect, or another doubt; inactive = no such curve, though single readings can be large or run the other way. A potency beside an inconclusive call is a rough fit, not a confirmed value.

Chains of the proteins cited; added tags and fusions are not shown.
UniProt Q92830, whole entry, looked up: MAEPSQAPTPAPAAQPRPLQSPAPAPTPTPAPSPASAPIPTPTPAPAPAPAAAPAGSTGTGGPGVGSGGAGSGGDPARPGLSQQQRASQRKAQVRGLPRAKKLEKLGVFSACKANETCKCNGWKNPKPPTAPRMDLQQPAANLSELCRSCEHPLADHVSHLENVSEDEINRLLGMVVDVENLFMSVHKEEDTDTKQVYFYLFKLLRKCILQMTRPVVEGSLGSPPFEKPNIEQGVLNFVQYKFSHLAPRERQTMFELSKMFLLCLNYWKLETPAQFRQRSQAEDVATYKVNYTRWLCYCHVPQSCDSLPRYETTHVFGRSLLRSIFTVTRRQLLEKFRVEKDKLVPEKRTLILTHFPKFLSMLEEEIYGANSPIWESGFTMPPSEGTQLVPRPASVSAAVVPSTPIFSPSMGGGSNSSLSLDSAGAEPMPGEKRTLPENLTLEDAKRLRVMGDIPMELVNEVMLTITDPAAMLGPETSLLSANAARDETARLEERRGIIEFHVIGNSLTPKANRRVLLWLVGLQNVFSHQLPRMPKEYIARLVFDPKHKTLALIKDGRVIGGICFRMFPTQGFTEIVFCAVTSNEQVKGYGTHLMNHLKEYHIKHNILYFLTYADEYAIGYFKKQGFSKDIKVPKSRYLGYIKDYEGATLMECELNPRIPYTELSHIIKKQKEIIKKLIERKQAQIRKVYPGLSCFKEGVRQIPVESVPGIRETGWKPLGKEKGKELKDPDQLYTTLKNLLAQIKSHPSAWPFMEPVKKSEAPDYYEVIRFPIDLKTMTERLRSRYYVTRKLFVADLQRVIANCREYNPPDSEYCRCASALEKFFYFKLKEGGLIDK

These molecules were tested against Histone acetyltransferase KAT2A (Homo sapiens) (UniProt Q92830) (assay: qHTS Assay for Inhibitors of GCN5L2). Conditions: GCN5L2 HAT assay, ThioGlo1 CoA-SH fluorescence; activity change, negative = inhibition: at 58.9 µM (top of the series) unless noted.
How it was run: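 Fluorescence readout, Ex340nm/Em540nm: ThioGlo1 (50uM final) reacts with free CoA thiol released as 20nM GCN5L2 acetylates H3(1-25) peptide (75uM) using acetyl-CoA (70uM). Compound and enzyme sat 15 min beforehand; 20 min room-temperature reaction.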
% is scaled to controls: 0 for no effect and ±100 for the full control effect; potency is read from the fitted curve at half-maximal effect.

Compound	Potency	activity change, negative = inhibition
Cc1ccc(/C=C2/SC(=S)N(CCC(=O)N3CCN(c4ccccc4)CC3)C2=O)cc1	inactive	–
COc1cccc(-c2ccc(SCC(=O)c3ccccc3)nn2)c1	inconclusive: 8.91 µM [inhibitor, single point]	–
CC(C)C(C(=O)O)N1C(=O)/C(=C/C=C/c2ccco2)SC1=S (configuration not stated)	inconclusive: 3.55 µM [inhibitor, full curve]	–
CCC1=[N+]([O-])C(C)(/C(C)=N\O)N(O)C1(C)C (configuration not stated)	inconclusive: 10 µM [inhibitor, partial curve, poor fit]	–
NC(=S)N=Nc1ccc(NN=C(N)N)cc1	inconclusive: 28.2 µM [inhibitor, partial curve]	–
O=C(NCCc1ccc(Cl)cc1)c1ccc2c(c1)OCCO2	inconclusive: 0.141 µM [inhibitor, full curve, poor fit]	–
Cc1cccc(/C=C/c2onc(C)c2S(=O)(=O)N2CCC(C(=O)NC(C)(C)C)CC2)c1	inconclusive: 7.08 µM [inhibitor, single point]	–
COc1ccc(C(=O)NCCc2c[nH]c3ccccc23)cc1OC	inconclusive: 7.08 µM [inhibitor, partial curve]	–
COCCn1c(=O)c(-c2ccc(OC)cc2)nc2cnc(Oc3ccccc3)nc21	inconclusive: 17.8 µM [inhibitor, single point]	–
Cc1cc(C)n(Cc2ccc(C(=O)N/N=C/c3ccc(-c4ccc([N+](=O)[O-])cc4)o3)o2)n1	inactive	–
CCCc1nc(SCC(=O)Nc2nc3c(s2)CCCC3)c2ccccc2n1	inactive	–
CC(C)(C)NC(=O)[C@]1(C)CCC[C@@]2(C)C3CC[C@@]4(C)C[C@]3(CCC21)CC4=O (some centres not stated)	inactive	–
COc1cc(C(=O)NCc2nnc(SCC(=O)Nc3cccc(C(F)(F)F)c3)o2)cc(OC)c1OC	inconclusive: 39.8 µM [inhibitor, partial curve, poor fit]	–
N#Cc1ccc(C23CC4(C2)[C@H](CN(CC2CCCCC2)[C@@H]4c2ccccc2)C3c2ccccc2)cc1 (some centres not stated)	inactive	–
COc1ccccc1C(=O)NC1=NC(c2ccc(Br)cc2)CC(=O)N1 (configuration not stated)	inactive	–
O=S(=O)(Nc1ncnc2sc3c(c12)CCC3)c1ccc2ccccc2c1	inconclusive: 6.31 µM [inhibitor, partial curve, poor fit]	–
COc1ccc(-c2cc(-c3ccc(Cl)cc3)c(C#N)c(SCC(=O)O)n2)cc1	inconclusive: 39.8 µM [inhibitor, single point]	–
CCc1sc(/C=C(/C#N)C(N)=S)cc1[N+](=O)[O-]	inconclusive: 39.8 µM [inhibitor, partial curve, poor fit]	–
O=C1CC(N(CCc2ccccc2)C(=S)Nc2cc(Cl)ccc2Cl)C(=O)N1c1c(Cl)cccc1Cl (configuration not stated)	inconclusive: 1.12 µM [inhibitor, full curve, poor fit]	–
CCOc1ccc(NC(=O)NCc2cccnc2)cc1	inconclusive: 31.6 µM [inhibitor, single point]	–
CCOC(=O)c1c(CN2CCOCC2)n(-c2ccccc2)c2cc(Br)c(O)cc12	inconclusive: 0.708 µM [inhibitor, single point]	–
Cc1cc(=O)oc2cc(OCC3CC(c4ccc(Br)cc4)=NO3)ccc12 (configuration not stated)	inactive	–
O=C(Nc1ccc(Cl)c(Cl)c1)Nn1cnnc1	inconclusive: 7.08 µM [inhibitor, single point]	–

Compound	Potency	activity change, negative = inhibition
O=C(CC1C=Cc2ccccc2N1C(=O)c1ccccc1)c1ccccc1 (configuration not stated)	inconclusive: 0.141 µM [inhibitor, full curve, poor fit]	–
CC(C)(C)NC(=O)COc1ccc(CNCc2cccs2)cc1	inconclusive: 0.631 µM [inhibitor, single point]	–
CC1=NN(c2ccc(C)cc2C)C(=O)C1C(c1ccccc1)C1C(=O)N(c2ccc(C)cc2C)N=C1C (configuration not stated)	inactive	–
Cc1ccc(C(=O)Nc2cccc(C(F)(F)F)c2)cc1Nc1ncnc2nc[nH]c12	inconclusive: 3.98 µM [inhibitor, partial curve]	–
CCOC(=O)c1sc2nc(C3CC3)cc(-c3ccc(OC)cc3)c2c1N	inconclusive: 28.2 µM [inhibitor, single point]	–
O=C(NCc1ccccc1Cl)C1CCC(=O)N(CCCN2CCCC2=O)C1 (configuration not stated)	inconclusive: 4.47 µM [inhibitor, single point]	–
O=C(CN1CCCCCC1)Nc1ccccc1F	inconclusive: 39.8 µM [inhibitor, single point]	–
CC(C)C[C@H](NC(=O)c1nc[nH]c1C(=O)NC1CCNCC1)C(=O)OC(C)(C)C	inconclusive: 14.1 µM [inhibitor, partial curve]	–
O=C(c1cnccn1)N1CCC[C@@]2(CCN(c3ccncc3)C2)C1	inactive	–
O=C(O)c1ccccc1C(=O)c1ccc2c(c1)CCC2	inconclusive: 3.55 µM [inhibitor, single point]	–
CC1=Nc2cc(C(=O)NC3CCCC3)ccc2Sc2ccc(Cl)cc21	inactive	–
O=C(C1CCN(C2CCN(CC3CC=CCC3)CC2)CC1)N1CCOCC1 (configuration not stated)	inactive	–
Cc1cc(-c2csc(N)n2)c(C)n1Cc1ccccc1	inconclusive: 0.708 µM [inhibitor, single point]	–
CC(Oc1cc2oc(=O)c3c(c2cc1Cl)CCCC3)C(=O)NCc1ccccn1 (configuration not stated)	inactive	–
Cc1cccnc1NC(=O)C(C)Oc1ccccc1 (configuration not stated)	inconclusive: 1.58 µM [inhibitor, full curve, poor fit]	–
COc1cccc(N2CCN(c3ncnc4c3[nH]c3ccc(F)cc34)CC2C)c1 (configuration not stated)	inactive	–
Cc1ccc(NC(=O)COC(=O)COc2cccc3c2OC(C)(C)C3)cc1C	inconclusive: 8.91 µM [inhibitor, single point]	–
N#Cc1c(NC(=O)c2ccc(Cn3cc(Br)cn3)o2)sc2c1CCCCC2	inconclusive: 25.1 µM [inhibitor, partial curve, poor fit]	–
O=C(NCC1CCCO1)c1sc2cc(Cl)ccc2c1Cl (configuration not stated)	inconclusive: 0.891 µM [inhibitor, single point]	–
CC(=C\c1ccccc1)/C=C1/SC(=S)N(C(C(=O)O)C(C)C)C1=O (configuration not stated)	inconclusive: 39.8 µM [inhibitor, single point]	–
Cc1ccc(NC(=O)C(c2ccccc2)N(C)C)cc1Cl (configuration not stated)	inactive	–
CCOC(=O)c1c(NC(=O)c2ccccc2N(C)S(=O)(=O)c2ccccc2)sc2c1CCCC2	active: 31.6 µM	–
COc1ccccc1CNC(=O)CN1C(=O)N(C)C2(CCCCC2)C1=O	inconclusive: 0.891 µM [inhibitor, single point]	–

Compound	Potency	activity change, negative = inhibition
COC(=O)c1cc(NC(=O)c2cccc(C(F)(F)F)c2)c(=O)oc1C/C=N/OCc1cccc(Cl)c1Cl	–	inconclusive: -31.2% [inhibitor]
O=C1CC(N2CCN(CCc3ccccn3)CC2)C(=O)N1c1ccc(Cl)cc1 (configuration not stated)	inconclusive: 6.31 µM [inhibitor, single point]	–
CCOc1ccc(CCNC(=O)C2CC=CCC2C(=O)OC(C)C)cc1OCC (configuration not stated)	inactive	–
O=C(Nc1ccc(F)c(Cl)c1)NC1CC1	inactive	–
CCn1cc(C(=O)NCCc2ccccc2)c(=O)c2cc(S(=O)(=O)N3CCc4ccccc4C3)ccc21	inactive	–
Cc1cccc(CCNC(=O)COc2cc(=O)n(C)c3ccccc23)c1	inactive	–
Cc1ccc2c(C(=O)N3CCN(c4ccccc4)CC3)cc(-c3cccnc3)nc2c1C	inactive	–
O=C(NCc1ccc(Cl)cc1)c1cccc2c1C(=O)N(CC1CCCO1)C2 (configuration not stated)	inconclusive: 0.891 µM [inhibitor, full curve, poor fit]	–
O=C(/C=C/c1ccco1)N1CCN(S(=O)(=O)c2ccccc2)CC1	inconclusive: 35.5 µM [inhibitor, single point]	–
CCCN(CCC)CCNC(=O)c1nn(C)c2c1CS(=O)(=O)c1ccccc1-2	inactive	–
O=C(c1ccc(CS(=O)c2ccccc2Cl)o1)N1CCN(c2ccccn2)CC1 (configuration not stated)	inconclusive: 2 µM [inhibitor, full curve, poor fit]	–
CCOc1ccccc1N1CCN(C(=O)Nc2ccc(Cl)c(Cl)c2)CC1	inconclusive: 7.08 µM [inhibitor, single point]	–
O=C(C[n+]1cccc(C(=O)Nc2ccccc2)c1)c1ccc([N+](=O)[O-])cc1	inconclusive: 39.8 µM [inhibitor, single point]	–
CC1(C)c2[nH]c3ccccc3c2C[C@H]2C(=O)N(N)CC(=O)N21	inconclusive: 0.708 µM [inhibitor, full curve, poor fit]	–
CN(C)c1ccc(NC(=O)CN2CCN(S(=O)(=O)c3cc(Cl)ccc3Cl)CC2)cc1	inconclusive: 39.8 µM [inhibitor, single point]	–
CC#C[C@]1(O)CC[C@H]2[C@@H]3CCC4=CC(=O)CCC4=C3[C@@H](c3ccc(N(C)C)cc3)C[C@@]21C	inconclusive: 39.8 µM [inhibitor, single point]	–
O=C(c1cc(O)c(O)c([N+](=O)[O-])c1)c1ccccc1F	inconclusive: 31.6 µM [inhibitor, single point]	–
CCOC(=O)C1=CN(Cc2ccco2)S(=O)(=O)N(C)C1c1ccc(C(F)(F)F)cc1 (configuration not stated)	inactive	–
CS(=O)(=O)N1CC(C(=O)NN)Oc2ccc(Cl)cc21 (configuration not stated)	inconclusive: 39.8 µM [inhibitor, single point]	–
Cc1cc(C)nc(NC(=O)CSc2nn(C)c(=S)s2)n1	inconclusive: 39.8 µM [inhibitor, single point]	–
OCC1(Cc2ccccc2)CCN(Cc2cnc(-c3cccc4ccccc34)nc2)CC1	inconclusive: 39.8 µM [inhibitor, single point]	–

4 records drawn at random from the list so far, as already listed:
Compound	Potency	activity change, negative = inhibition
Cc1ccc2c(C(=O)N3CCN(c4ccccc4)CC3)cc(-c3cccnc3)nc2c1C	inactive	–
O=C1CC(N2CCN(CCc3ccccn3)CC2)C(=O)N1c1ccc(Cl)cc1 (configuration not stated)	inconclusive: 6.31 µM [inhibitor, single point]	–
O=C(/C=C/c1ccco1)N1CCN(S(=O)(=O)c2ccccc2)CC1	inconclusive: 35.5 µM [inhibitor, single point]	–
O=C(NCc1ccc(Cl)cc1)c1cccc2c1C(=O)N(CC1CCCO1)C2 (configuration not stated)	inconclusive: 0.891 µM [inhibitor, full curve, poor fit]	–
